Data reported in article PMC5874067.
Results are given in words; binding and its absence hold for the method and conditions named. In cells and extracts the contact can be indirect. Some results given as binding are weak or reduced against the parent protein; the word gives no strength. Where a sequence is shown, tags or fusion partners need not be part of it.

Assays:
EGFP-BBS1(WT) (human) [1] = target: T1, EGFP-BBS1(WT) (human) (UniProt Q8NFJ9); assay: co-IP; VIP assay: lysates of HEK293T cells co-expressing an EGFP-fused and an mChe- or tRFP-fused protein (HMDEKN buffer: 10 mM HEPES pH 7.4, 5 mM MgSO4, 1 mM DTT, 0.5 mM EDTA, 25 mM KCl, 0.5% NP-40); EGFP fusion precipitated with GST-anti-GFP nanobody on glutathione-Sepharose beads; beads read by fluorescence microscopy and, for some pairs, by immunoblotting
T1 sequence: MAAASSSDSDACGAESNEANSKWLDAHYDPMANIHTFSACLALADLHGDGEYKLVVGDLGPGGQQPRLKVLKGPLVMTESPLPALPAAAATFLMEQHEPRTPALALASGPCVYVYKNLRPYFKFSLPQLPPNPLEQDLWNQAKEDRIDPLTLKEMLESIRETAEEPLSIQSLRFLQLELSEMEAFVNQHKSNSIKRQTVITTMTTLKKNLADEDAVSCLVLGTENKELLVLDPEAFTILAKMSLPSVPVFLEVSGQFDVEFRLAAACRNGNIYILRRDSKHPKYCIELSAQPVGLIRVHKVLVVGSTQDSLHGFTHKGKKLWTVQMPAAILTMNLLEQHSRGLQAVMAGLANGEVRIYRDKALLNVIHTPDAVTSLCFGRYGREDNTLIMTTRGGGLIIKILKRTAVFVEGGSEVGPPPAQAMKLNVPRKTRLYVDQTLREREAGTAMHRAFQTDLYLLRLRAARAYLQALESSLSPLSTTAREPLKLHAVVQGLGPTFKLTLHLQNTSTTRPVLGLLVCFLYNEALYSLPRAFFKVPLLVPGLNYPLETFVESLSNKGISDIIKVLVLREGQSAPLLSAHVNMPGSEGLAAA

EGFP-BBS1(WT) (human) [2] = target: T1, EGFP-BBS1(WT) (human); assay: co-IP; VIP assay and immunoblotting; EGFP-BBS1 construct and tRFP-ARL6∆N15(Q73L) co-expressed in HEK293T with tRFP-fused BBS9 (WT construct or CT region)
EGFP-BBS1(WT) (human) [3] = target: T1, EGFP-BBS1(WT) (human); assay: co-IP; VIP assay and immunoblotting; EGFP-BBS1 construct and tRFP-ARL6∆N15(Q73L) co-expressed in HEK293T with tBFP-BBS9
EGFP-BBS1(WT) (human) [4] = target: T1, EGFP-BBS1(WT) (human); assay: co-IP; VIP assay (confocal microscopy of beads); EGFP-BBS1 construct and tRFP-ARL6∆N15(Q73L) co-expressed in HEK293T with tBFP fusions of the other core subunits (BBS2/BBS7/BBS9)
EGFP-BBS1(WT) (human) [5] = target: T1, EGFP-BBS1(WT) (human); assay: co-IP; VIP assay (confocal microscopy of beads); EGFP-BBS1 construct and tRFP-ARL6∆N15(Q73L) co-expressed in HEK293T with tBFP fusions of all the other BBSome subunits (BBS2/BBS4/BBS5/BBS7/BBS8/BBS9/BBS18)

Measured: binding

B1: tRFP-fused ARL6∆N15(Q73L) (domain or fragment, UniProt Q9H0F7 16-186)
chain: KEVHVLCLGLDNSGKTTIINKLKPSNAQSQNILPTIGFSIEKFKSSSLSFTVFDMSGLGRYRNLWEHYYKEGQAIIFVIDSSDRLRMVVAKEELDTLLNHPDIKHRRIPILFFANKMDLRDAVTSVKVSQLLCLENIKDKPWHICASDAIKGEGLQEGVDWLQDQIQTVKT
binds: all assays above
